The list shows a part of the results.
Assays:
Assay in all cases: glycan array binding signal (z-score within array); higher = stronger binding
Conditions in all cases: glycan notation: IUPAC condensed, linker removed
[1] = biological target: Gal(b1-4)GlcNAc(b1-3)Gal(b1-4)GlcNAc(b1-3)Gal(b1-4)GlcNAc
How it was run: (§1)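 Glycan array data were curated from 3228 arrays in the Consortium for Functional Glycomics database and kept only where the protein sequence was available. Glycan names were converted to IUPAC-condensed notation, and columns mapping to the same glycan were averaged. The binding signal is a within-array Z-score, averaged across arrays of the same protein sequence at different concentrations or buffers and across linkers. Negative Z-scores can be read as non-binding.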

[2] = biological target: Gal(b1-4)GlcNAc(b1-3)Gal(b1-4)[Fuc(a1-3)]GlcNAc(b1-3)Gal(b1-4)[Fuc(a1-3)]GlcNAc
How it was run: as §1

[3] = biological target: Gal(b1-4)GlcNAc(b1-3)GalNAc
How it was run: as §1

[4] = biological target: Gal(b1-4)GlcNAc(b1-3)[Gal(b1-4)GlcNAc(b1-6)]Gal(b1-4)GlcNAc
How it was run: as §1

[5] = biological target: Gal(b1-4)GlcNAc(b1-3)[GlcNAc(b1-6)]Gal(b1-4)GlcNAc
How it was run: as §1

[6] = biological target: Gal(b1-4)GlcNAc(b1-6)Gal(b1-4)GlcNAc
How it was run: as §1

[7] = biological target: Gal(b1-4)GlcNAc(b1-6)Gal(b1-4)GlcNAc(b1-6)GalNAc
How it was run: as §1

[8] = biological target: Gal(b1-4)GlcNAc(b1-6)GalNAc
How it was run: as §1

[9] = biological target: Gal(b1-4)GlcNAc(b1-6)[Gal(b1-3)]GalNAc
How it was run: as §1

[10] = biological target: Gal3S(b1-3)GalNAc
How it was run: as §1

[11] = biological target: Gal3S(b1-3)GlcNAc
How it was run: as §1

[12] = biological target: Gal3S(b1-3)[Fuc(a1-4)]GlcNAc
How it was run: as §1

[13] = biological target: Gal3S(b1-4)Glc
How it was run: as §1

[14] = biological target: Gal3S(b1-4)Glc6S
How it was run: as §1

[15] = biological target: Gal3S(b1-4)GlcNAc
How it was run: as §1

[16] = biological target: Gal3S(b1-4)GlcNAc6S
How it was run: as §1

[17] = biological target: Gal3S(b1-4)[Fuc(a1-3)]Glc
How it was run: as §1

[18] = biological target: Gal3S4S(b1-4)GlcNAc
How it was run: as §1

[19] = biological target: Gal3S6S(b1-4)GlcNAc
How it was run: as §1

[20] = biological target: Gal3S6S(b1-4)GlcNAc6S
How it was run: as §1

[21] = biological target: Gal4S(b1-4)GlcNAc
How it was run: as §1

[22] = biological target: Gal4S6S(b1-4)GlcNAc
How it was run: as §1

[23] = biological target: Gal6S(b1-4)Glc
How it was run: as §1

[24] = biological target: Gal6S(b1-4)Glc6S
How it was run: as §1

[25] = biological target: Gal6S(b1-4)GlcNAc
How it was run: as §1

[26] = biological target: Gal6S(b1-4)GlcNAc6S
How it was run: as §1

[27] = biological target: GalNAc(a1-3)Gal
How it was run: as §1

[28] = biological target: GalNAc(a1-3)GalNAc
How it was run: as §1

[29] = biological target: GalNAc(b1-3)Gal
How it was run: as §1

[30] = biological target: GalNAc(b1-3)Gal(a1-4)Gal(b1-4)GlcNAc
How it was run: as §1

[31] = biological target: GalNAc(b1-3)GalNAc
How it was run: as §1

[32] = biological target: GalNAc(b1-4)GlcNAc
How it was run: as §1

[33] = biological target: Glc(a1-4)Glc
How it was run: as §1

[34] = biological target: Glc(a1-6)Glc(a1-6)Glc
How it was run: as §1

[35] = biological target: Glc(b1-4)Glc
How it was run: as §1

[36] = biological target: Glc(b1-6)Glc
How it was run: as §1

[37] = biological target: GlcA(b1-3)Gal
How it was run: as §1

B1: Mcg Light Chain Dimer (Homo sapiens), Q6PIK1 (protein)
chain: MAGFPLLLTLLTHCAGSWGQSLLTQPPSVSGTPGQRVTISCSGSSSNIGINYVYWYQQIPGTAPKLLISTNDQRPSGVPDRFSGSKSGTSASLAIGGLRSEDEAHYYCAAWDDSMSGPGYAFGTGTKVTVLRQPKANPTVTLFPPSSEELQANKATLVCLISDFYPGAVTVAWKADGSPVKAGVETTKPSKQSNNKYAASSYLSLTPEQWKSHRSYSCQVTHEGSTVEKTVAPTECS
[1]
  glycan array binding signal (z-score): 0.916
[2]
  glycan array binding signal (z-score): -0.852
[3]
  glycan array binding signal (z-score): -0.241
[4]
  glycan array binding signal (z-score): -0.825
[5]
  glycan array binding signal (z-score): 0.531
[6]
  glycan array binding signal (z-score): 0.527
[7]
  glycan array binding signal (z-score): 0.421
[8]
  glycan array binding signal (z-score): -1.04
[9]
  glycan array binding signal (z-score): 0.016
[10]
  glycan array binding signal (z-score): -0.509
[11]
  glycan array binding signal (z-score): 2.2
[12]
  glycan array binding signal (z-score): 1.16
[13]
  glycan array binding signal (z-score): -0.54
[14]
  glycan array binding signal (z-score): 1.76
[15]
  glycan array binding signal (z-score): 0.496
[16]
  glycan array binding signal (z-score): 0.368
[17]
  glycan array binding signal (z-score): -0.54
[18]
  glycan array binding signal (z-score): 3.63
[19]
  glycan array binding signal (z-score): 0.049
[20]
  glycan array binding signal (z-score): 5.67
[21]
  glycan array binding signal (z-score): 1.6
[22]
  glycan array binding signal (z-score): 0.175
[23]
  glycan array binding signal (z-score): 0.392
[24]
  glycan array binding signal (z-score): 0.257
[25]
  glycan array binding signal (z-score): 1.71
[26]
  glycan array binding signal (z-score): 0.505
[27]
  glycan array binding signal (z-score): -0.99
[28]
  glycan array binding signal (z-score): 0.139
[29]
  glycan array binding signal (z-score): -0.592
[30]
  glycan array binding signal (z-score): -0.745
[31]
  glycan array binding signal (z-score): -1.1
[32]
  glycan array binding signal (z-score): -0.53
[33]
  glycan array binding signal (z-score): -0.366
[34]
  glycan array binding signal (z-score): -0.665
[35]
  glycan array binding signal (z-score): 0.064
[36]
  glycan array binding signal (z-score): -1.03
[37]
  glycan array binding signal (z-score): -0.755

From the supplement of paper PMC8728848
